Results published in patent publication US20150004631A1, “Plasmodium falciparum HLA class I restricted T-cell epitopes” (priority 2013, published 2015).
Some entries share one result that the patent states for a list of compounds.

System: CD8+ or CD4+ T cell depleted PBMC
Assay: ELISpot IFN-γ assay after CD8+ or CD4+ depletion (Table 6)
Format: cell-based, human
Conditions: summary of Table 6

Sequence | reduction in response after depletion of CD8^+ T-cells
FKADRYKSHGKGYNW [Ap8-6] | 99-100%
RYKSHGKGYNWGNYN [Ap8-7] | 99-100%
